In paper PMC6877959 (Oxidative Medicine and Cellular Longevity, 2019):
Strings that start with PEPTIDE1 are HELM notation: dots part the residues, brackets hold end groups and non-standard residues.

Assay: general procedure: Fmoc solid-phase peptide synthesis; Wang resin; HBTU/HOAt/DIEA
Conditions: whole synthesis, 214 nm, scale of the general procedure 0.150 g resin, 0.69 mmol/g

With PEPTIDE1{S.F.N.P.T.Q.L}$$$$V2.0 the “final HPLC purity” value was greater than 98%.
